According to patent publication US20140322196A1 (priority 2011, published 2014):
Part of at least one peptide drawing is inferred or uncertain, most often the ends. Ends that are not written are not given here.

The sequences below were run on A/Parma/24/09 (Brisbane-like) (oseltamivir-resistant) H1N1. Details: A/Parma/24/09 H1N1.
Type: cell-based, Influenza A virus

Sequence | HI titre
SKHSSLDCVLRP [SEQ ID NO: 1, SKHSSLDCVLRP] | 1.4 pM
AGDDQGLDKCVPNSKEK [SEQ ID NO: 2, AGDDQGLDKCVPNSKEK] | 1.4 pM
NGESSADWAKN [SEQ ID NO: 4, NGESSADWAKN] | 0.0003 pM
